First the molecules themselves.
B1: MAdCAM Antibody Table 1 Clone 60 (scFv)
scFv: EVQLLESGGGLVQPGGSLRLSCAASGFTFDDYTMHWVRQAPGKGLEWVSDISGSGGSTYYADSVKGRFTISRDNSKNTLYLQMNSLRAEDTAVYYCAKDVVVAGTPLHFDYWGQGTLVTVSSGGGGSGGGGSGGGGSGGGGSDIQMTQSPSSLSASVGDRVTITCQASQDISNYLNWYQQKPGKAPKLLIYAASYLQSGVPSRFSGSGSGTDFTLTISSLQPEDFATYYCQQAHNYPITFGQGTRLEIK
B2: MAdCAM Antibody Table 2 Clone 20 (antibody, human IgG1, V domains shown)
VH: EVQLLESGGGLVQPGGSLRLSCAASGFTFSDSAMHWVRQAPGKGLEWVSAISGSGSTIYYADSVKGRFTISRDNSKNTLYLQMNSLRAEDTAVYYCVSDIAVAGHWYFDLWGRGTLVTVSS
VL: DIQMTQSPSSLSASVGDRVTITCRASQSISTFLNWYQQKPGKAPKLLIYAASRLEGGVPSRFSGSGSGTDFTLTISSLQPEDFATYYCQQANSFPLTFGPGTKVDIK
B3: MAdCAM Antibody Table 2 Clone 55 (antibody, human IgG1, V domains shown)
VH: EVQLLESGGGLVQPGGSLRLSCAASGFTFDDFAMHWVRQAPGKGLEWVSGISGNGDSRYYADSVKGRFTISRDNSKNTLYLQMNSLRAEDTAVYYCARDASYGGNYGMDVWGQGTTVTVSS
VL: DIQMTQSPSSLSASVGDRVTITCQASQDIRNYLNWYQQKPGKAPKLLIYKASTLESGVPSRFSGSGSGTDFTLTISSLQPEDFATYYCQQANSFPLTFGPGTKVDIK
B4: MAdCAM Antibody Table 1 Clone 63 (scFv)
scFv: EVQLLESGGGLVKPGGSLRLSCAASGFTFDDYAMHWVRQAPGKGLEWVASITSSSAFIDYAASVKGRFTISRDDSKNTLYLQMNSLKTEDTAVYYCARERVDWNSYFDLWGRGTLVTVSSGGGGSGGGGSGGGGSGGGGSEIVMTQSPATLSVSPGERATLSCRASQGISNSYLAWYQQKPGQAPRLLIYGASTRATGIPARFSGSGSGTEFTLTISSLQSEDFAVYYCQQYYTYPPTFGPGTKVDIK
B5: MAdCAM Antibody Table 1 Clone 65 (scFv)
scFv: QVQLVQSGAEVKKPGASVKVSCKASGYTFTRHWIHWVRQAPGQGLEWMGWINVKTGGAGYAQKFQGRVTMTRDTSTSTVYMELSSLRSEDTAVYYCARESSGWYGTDVWGQGTTVTVSSGGGGSGGGGSGGGGSGGGGSDIQMTQSPSSLSASVGDRATITCRASQSISNYLAWYQQKPGKAPKLLIYAASSLQSGVPSRFSGSGSGTDFTLTISSLQPEDFATYYCQQSNSFPLTFGGGTKVEIK
B6: MAdCAM Antibody Table 2 Clone 74 (antibody, human IgG1, V domains shown)
VH: QVQLVQSGAEVKKPGASVKVSCKASGYTFTGYYMHWVRQAPGQGLEWMGIINPSGGNTKYAQKFQGRVTMTRDTSTSTVYMELSSLRSEDTAVYYCTTADYYYYMDVWGKGTTVTVSS
VL: DIQMTQSPSSLSASVGDRVTITCRASQGISNYLAWYQQKPGKAPKLLIYAASSLQSGVPSRFSGSGSGTDFTLTISSLQPEDFATYYCQQYYSNADFGQGTKVEIK
B7: MAdCAM Antibody Table 2 Clone 63 (antibody, human IgG1, V domains shown)
VH: EVQLLESGGGLVQPGGSLRLSCAASGFTFNNYGMNWVRQAPGKGLEWVSRINSDGSSTSYADSVKGRFTISRDNSKNTLYLQMNSLRAEDTAVYYCARGAYYYYYMDVWGQGTLVTVSS
VL: EIVMTQSPATLSVSPGERATLSCRASQSVSGSYLAWYQQKPGQAPRLLIYATSSRASGIPARFSGSGSGTEFTLTISSLQSEDFAVYYCQQYYSGLTFGQGTKVEIK
B8: MAdCAM Antibody Table 2 Clone 60 (antibody, human IgG1, V domains shown)
VH: EVQLLESGGGLVQPGGSLRLSCAASGFTFSDHGMHWVRQAPGKGLEWVSVIYGGESTYYADSVKGRFTISRDNSKNTLYLQMNSLRAEDTAVYYCARDPAVAGGGIFDYWGQGTLVTVSS
VL: DIQMTQSPSSLSASVGDRVTITCRASQGISNYLAWYQQKPGKAPKLLIYDASNLETGVPSRFSGSGSGTDFTLTISSLQPEDFATYYCQQSYSTCYTFGQGTKLEIK
B9: MAdCAM Antibody Table 1 Clone 64 (scFv)
scFv: EVQLLESGGGLVKPGGSLRLSCAASGFAFSSHWMHWVRQAPGKGLEWVAGTSGSGESRDYADFVKGRFTISRDDSKNTLYLQMNSLKTEDTAVYYCARETYYYYYMDVWGKGTTVTVSSGGGGSGGGGSGGGGSGGGGSDIQMTQSPSSLSASVGDRVTITCRASQGISNYLAWYQQKPGKAPKLLIYDAANLEGGVPSRFSGSGSGTDFTLTISSLQPEDFATYYCQQSDIFPPTFGQGTKVEIK
B10: MAdCAM Antibody Table 1 Clone 66 (scFv)
scFv: EVQLLESGGGLVQPGGSLRLSCAASGFTFSSYWMHWVRQAPGKGLEWVAAISYDGKYKDYEDSVKGRFTISRDNSKNTLYLQMNSLRAEDTAVYYCARENKQWLASFDYWGQGTLVTVSSGGGGSGGGGSGGGGSGGGGSDIQMTQSPSSLSASVGDRVTITCQASQDISNFVNWYQQKPGKAPKLLIYAANLRSGVPSRFSGSGSGTDFTLTISSLQPEDFATYYCQQANSFPVTFGPGTKVDIK
B11: MAdCAM Antibody Table 2 Clone 4 (antibody, human IgG1, V domains shown)
VH: QVQLVQSGAEVKKPGASVKVSCKASGGTFSSYAISWVRQAPGQGLEWMGSINPSGDTTSYAQKFQGRVTMTRDTSTSTVYMELSSLRSEDTAVYYCAKDKAQWLVGYFDYWGQGTLVTVSS
VL: DIQMTQSPSSLSASVGDRVTITCQASQDISNSLNWYQQKPGKAPKLLIYAASSLQSGVPSRFSGSGSGTDFTLTISSLQPEDFATYYCQQSYSSVITFGQGTKVEIK
B12: MAdCAM Antibody Table 2 Clone 5 (antibody, human IgG1, V domains shown)
VH: EVQLLESGGGLVQPGGSLRLSCAASGFTFSSYWMHWVRQAPGKGLEWVSSISPGGSNIDYADSVKGRFTISRDNSKNTLYLQMNSLRAEDTAVYYCAREVQLSHYDYWGQGTLVTVSS
VL: DIQMTQSPSSLSASVGDRVTITCRASQGISNSLAWYQQKPGKAPKLLIYGASSLQSGVPSRFSGSGSGTDFTLTISSLQPEDFATYYCQQANSFPFTFGQGTKVEIK
B13: MAdCAM Antibody Table 2 Clone 76 (antibody, human IgG1, V domains shown)
VH: EVQLLESGGGLVQPGGSLRLSCAASGFTFDDYTMHWVRQAPGKGLEWVSDISGSGGSTYYADSVKGRFTISRDNSKNTLYLQMNSLRAEDTAVYYCAKDVVVAGTPLHFDYWGQGTLVTVSS
VL: DIQMTQSPSSLSASVGDRVTITCQASQDISNYLNWYQQKPGKAPKLLIYAASYLQSGVPSRFSGSGSGTDFTLTISSLQPEDFATYYCQQAHNYPITFGQGTRLEIK
B14: MAdCAM Antibody Table 2 Clone 8 (antibody, human IgG1, V domains shown)
VH: QVQLVQSGAEVKKPGASVKVSCKASGYTFTGYHIHWVRQAPGQGLEWMGIINPSGGSTIYAQKFQGRVTMTRDTSTSTVYMELSSLRSEDTAVYYCAKDWSSWYLGPFDYWGQGTLVTVSS
VL: DIQMTQSPSSLSASVGDRVTITCRASQNISSSLNWYQQKPGKAPKLLIYAASSLQSGVPSRFSGSGSGTDFTLTISSLQPEDFATYYCQQSYTTPYTFGQGTKVEIK
B15: MAdCAM Antibody Table 2 Clone 65 (antibody, human IgG1, V domains shown)
VH: QVQLVQSGAEVKKPGASVKVSCKASGYTFTSYDINWVRQAPGQGLEWMGWMNPNSGNTGYAQKFQGRVTMTRDTSTSTVYMELSSLRSEDTAVYYCAKDSDYSNLLWDYWGQGTLVTVSS
VL: DIQMTQSPSSLSASVGDRVTITCRASQDITNDLGWYQQKPGKAPKLLIYQASSLESGVPSRFSGSGSGTDFTLTISSLQPEDFATYYCQQSYTIPLTFGQGTKVEIK
B16: MAdCAM Antibody Table 2 Clone 30 (antibody, human IgG1, V domains shown)
VH: EVQLLESGGGLVQPGGSLRLSCAASGFTFSSYAMHWVRQAPGKGLEWVSGISGSGGSAYYADSVKGRFTISRDNSKNTLYLQMNSLRAEDTAVYYCATSQAPVDYYYYGMDVWGQGTTVTVSS
VL: DIQMTQSPSSLSASVGDRVTITCRASQSISSWLAWYQQKPGKAPKLLIYAASNLQRGVPSRFSGSGSGTDFTLTISSLQPEDFATYYCQQSYSIPITFGQGTKVEIK
B17: MAdCAM Antibody Table 2 Clone 23 (antibody, human IgG1, V domains shown)
VH: EVQLLESGGGLVQPGGSLRLSCAASGFTFDDYAMHWVRQAPGKGLEWVSYIDTSSSHLYYADSVKGRFTISRDNSKNTLYLQMNSLRAEDTAVYYCARDEAAAGYYGMDVWGQGTTVTVSS
VL: DIQMTQSPSSLSASVGDRVTITCQAGQDISNYLNWYQQKPGKAPKLLIYDASNLETGVPSRFSGSGSGTDFTLTISSLQPEDFATYYCQQTYSTPITFGQGTKLEIK
B18: MAdCAM Antibody Table 2 Clone 11 (antibody, human IgG1, V domains shown)
VH: EVQLLESGGGLVQPGGSLRLSCAASGFTFSDYYMNWVRQAPGKGLEWVSVIGESGGSTYYADSVKGRFTISRDNSKNTLYLQMNSLRAEDTAVYYCAADPVSRWPKHGGGDYWGQGTLVTVSS
VL: DIQMTQSPSSLSASVGDRVTITCRASQGISSSLAWYQQKPGKAPKLLIYAASTLQSGVPSRFSGSGSGTDFTLTISSLQPEDFATYYCQQSYSTPWTFGQGTKVEIK
B19: MAdCAM Antibody Table 1 Clone 59 (scFv)
scFv: EVQLLESGGGLVQPGGSLRLSCAASGFTFSDFWMHWVRQAPGKGLEWISYISGDSGYTNYADSVKGRFTISRDNSKNTLYLQMNSLRAEDTAVYYCARDRPYYYYMDVWGKGTTVTVSSGGGGSGGGGSGGGGSGGGGSDIQMTQSPSSLSASVGDRVTITCRASQSVSRSLAWYQQKPGKAPKLLIYAASSLQSGVPSRFSGSGSGTDFTLTISSLQPEDFATYYCQQYKSYPVTFGQGTKVEIK
B20: MAdCAM Antibody Table 2 Clone 17 (antibody, human IgG1, V domains shown)
VH: QVQLVQSGAEVKKPGSSVKVSCKASGYTFTDYHIHWVRQAPGQGLEWMGGIVPRSGSTTYAQKFQGRVTITADESTSTAYMELSSLRSEDTAVYYCAKDESSGWYYFDYWGQGTLVTVSS
VL: DIVMTQSPLSLPVTPGEPASISCRSSQSLLHSNGYNYLDWYLQKPGQSPQLLIYSAYNRASGVPDRFSGSGSGTDFTLKISRVEAEDVGVYYCMQALQTPLTFGQGTKVEIK
B21: MAdCAM Antibody Table 1 Clone 61 (scFv)
scFv: EVQLLESGGGLVQPGGSLRLSCAASEFTFSNAWMSWVRQAPGKGLEWVASISSTSAYIDYADSVKGRFTISRDNSKNTLYLQMNSLRAEDTAVYYCAREVVGATTFDYWGQGTLVTVSSGGGGSGGGGSGGGGSGGGGSDIQMTQSPSSLSASVGDRVTITCRASQSISTWLAWYQQKPGKAPKLLIYAASSLQSGVPSRFSGSGSGTDFTLTISSLQPEDFATYYCQQANAFPPTFGQGTRLEIK

No constants are given. Whether binding was seen depends on the method and setting. Binding can be weak; no strength is given.

The target in this assay is cyno MAdCAM protein (cyno). Description: Octet.
On to B1, for which the binding entry is reported as “binds”.

With B2, the binding result is given as “binds”. With B3, the binding entry was “binds”.

As for B4, the binding result is recorded as “binds”. B5: the binding result is on record as “binds”. B6: the binding entry is “binds”.

On to B7, for which the binding result was “binds”. B8: the binding entry is “binds”.

With B9, the binding entry is listed as “binds”. As for B10, the binding result is “binds”. For B11, the binding entry is “binds”. For B12, the binding result is “binds”.

With B13, the binding entry is on record as “binds”.

For B14, the binding entry is reported as “binds”.

B15: the binding entry was “binds”.

As for B16, the binding result is “binds”. For the molecule B17, the binding entry was “binds”.

As to B18, the binding entry is “binds”. Regarding B19, the binding entry was “binds”. Under B20 stands “binds”. Under B21 stands “binds”.

The record behind these values is patent US20210206856A1.
